Measurements reported in PubChem BioAssay AID1259425 (University of Nebraska Medical Center, 2018).
Here is one part, drawn at random, of about 14,000 reagents. Reagent sequences are not shown. The record does not give: the time to read-out.

Assay: 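Compare each knockdown with KSR1 silencing using changes in marker transcripts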 (primary screen)
Cell system: HCT116 human colon cancer cells
Reagent: siRNA pool against human genes, 50 nM siRNA
Read-out: 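mRNA of six signature genes measured together by branched-DNA assay after 50 nM siRNA pool, blank removed, divided by geometric mean of two housekeeping genes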
Scale: BNIP3L mRNA: higher = more BNIP3L transcript after knockdown; NDRG1 mRNA: higher = more NDRG1 transcript after knockdown; BNIP3 mRNA: higher = more BNIP3 transcript after knockdown; ALDOC mRNA: higher = more ALDOC transcript after knockdown; ACSL5 mRNA: higher = more ACSL5 transcript after knockdown

gene symbol | BNIP3L mRNA, set 1 | NDRG1 mRNA, set 1 | BNIP3 mRNA, set 1 | ALDOC mRNA, set 1 | ACSL5 mRNA, set 1
PDK3 (pyruvate dehydrogenase kinase 3) | 0.0715 | 0.0568 | 0.279 | 0.00766 | 0.184
ZNF594 (zinc finger protein 594) | 0.0716 | 0.0967 | 0.249 | 0.0278 | 0.107
RASL12 (RAS like family 12) | 0.217 | 0.279 | 0.457 | 0.0288 | 0.247
HCRTR1 (hypocretin receptor 1) | 0.0854 | 0.329 | 0.214 | 0.0337 | 0.22
FOXE3 (forkhead box E3) | 0.197 | 0.0827 | 0.499 | 0.00916 | 0.0794
HMGXB4 (HMG-box containing 4) | 0.0684 | 0.153 | 0.188 | 0.0123 | 0.239
LTF (lactotransferrin) | 0.108 | 0.0952 | 0.223 | 0.032 | 0.316
ADAM19 (ADAM metallopeptidase domain 19) | 0.117 | 0.159 | 0.328 | 0.0364 | 0.185
USP3 (ubiquitin specific peptidase 3) | 0.0569 | 0.26 | 0.239 | 0.0207 | 0.218
EIF2S1 (eukaryotic translation initiation factor 2 subunit alpha) | 0.158 | 1.27 | 0.341 | 0.0249 | 0.355
PRP4K (pre-mRNA processing factor kinase PRP4K) | 0.174 | 0.173 | 0.745 | 0.00775 | 0.521
NQO2 (N-ribosyldihydronicotinamide:quinone dehydrogenase 2) | 0.0826 | 0.0607 | 0.301 | 0.0347 | 0.097

Reprinted from the listing (4 entries):
gene symbol | BNIP3L mRNA, set 1 | NDRG1 mRNA, set 1 | BNIP3 mRNA, set 1 | ALDOC mRNA, set 1 | ACSL5 mRNA, set 1
USP3 (ubiquitin specific peptidase 3) | 0.0569 | 0.26 | 0.239 | 0.0207 | 0.218
EIF2S1 (eukaryotic translation initiation factor 2 subunit alpha) | 0.158 | 1.27 | 0.341 | 0.0249 | 0.355
PRP4K (pre-mRNA processing factor kinase PRP4K) | 0.174 | 0.173 | 0.745 | 0.00775 | 0.521
NQO2 (N-ribosyldihydronicotinamide:quinone dehydrogenase 2) | 0.0826 | 0.0607 | 0.301 | 0.0347 | 0.097

Continued:
gene symbol | BNIP3L mRNA, set 1 | NDRG1 mRNA, set 1 | BNIP3 mRNA, set 1 | ALDOC mRNA, set 1 | ACSL5 mRNA, set 1
FGF8 (fibroblast growth factor 8) | 0.086 | 0.11 | 0.202 | 0.0237 | 0.0894
LAPTM4A (lysosomal protein transmembrane 4 alpha) | 0.195 | 0.558 | 0.341 | 0.0576 | 0.11
NFKB2 (nuclear factor kappa B subunit 2) | 0.0941 | 0.277 | 0.393 | 0.0102 | 0.174
FABP7 (fatty acid binding protein 7) | 0.169 | 0.134 | 0.374 | 0.0485 | 0.0863
SELENBP1 (selenium binding protein 1) | 0.084 | 0.155 | 0.295 | 0.0072 | 0.301
AKIRIN1 (akirin 1) | 0.0559 | 0.147 | 0.417 | 0.0026 | 0.381
GOLGA5 (golgin A5) | 0.18 | 0.145 | 0.331 | 0.0404 | 0.198
USP19 (ubiquitin specific peptidase 19) | 0.0696 | 0.186 | 0.277 | 0.0251 | 0.235
PMM2 (phosphomannomutase 2) | 0.0831 | 0.169 | 0.148 | 0.0117 | 0.0926
GOLGB1 (golgin B1) | 0.0906 | 0.162 | 0.245 | 0.00732 | 0.293
LTBP1 (latent transforming growth factor beta binding protein 1) | 0.122 | 0.223 | 0.328 | 0.0453 | 0.149
LSM7 | 0.177 | 0.462 | 0.242 | 0.00796 | 0.162
HCLS1 (hematopoietic cell-specific Lyn substrate 1) | 0.14 | 0.249 | 0.253 | 0.0174 | 0.182
TMEM39A (transmembrane protein 39A) | 0.0809 | 0.0888 | 0.326 | 0.035 | 0.0751
TOR3A (torsin family 3 member A) | 0.0425 | 0.331 | 0.287 | 0.0221 | 0.236
AKAP7 (A-kinase anchoring protein 7) | 0.0663 | 0.0749 | 0.229 | 0.00693 | 0.357
FCHSD2 (FCH and double SH3 domains 2) | 0.178 | 0.195 | 0.471 | 0.0323 | 0.149
RPL41 (ribosomal protein L41) | 0.106 | 0.0865 | 0.445 | 0.0277 | 0.0621
KLRC4 (killer cell lectin like receptor C4) | 0.0472 | 0.073 | 0.305 | 0.0246 | 0.124
DNAJB12 (DnaJ heat shock protein family (Hsp40) member B12) | 0.108 | 0.117 | 0.279 | 0.0389 | 0.106
AFG2B (AAA ATPase AFG2B) | 0.245 | 0.716 | 0.219 | 0.0113 | 0.451
PGLS (6-phosphogluconolactonase) | 0.0945 | 0.105 | 0.36 | 0.0131 | 0.108
